This list holds what a sample rich in targets with a hit left over. Single values of this set are uncertain. Only a part is listed here, and it is no random draw.
What follows are targets tested with COC(=O)/C=C/c1ccccc1 [methyl cinnamate] (assay: log2 ratio of iodoacetamide-alkyne labeling of the cysteine site, DMSO over compound (competition); higher = stronger covalent engagement of the cysteine by the compound, active = 1 or more). Conditions: 500 µM; treatment time 1 h; system: HEK293T cell lysate.
Summary of the method: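 After 1 h at ambient temperature with vehicle or electrophile (500 µM), HEK293T lysate (2 mg/mL) was labelled for 1 h with iodoacetamide alkyne and clicked to sCIP-TMT reagents. Pooled samples were trypsin-digested overnight at 37 °C, streptavidin-enriched, acid-eluted and analysed by Orbitrap Eclipse LC-MS/MS with FAIMS, then quantified in FragPipe over three replicates with duplicate channels. A cysteine's log2 competition ratio is its mean control-channel over mean compound-channel reporter intensity. Cysteines quantified in only one replicate were not included.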

Chains of the proteins cited; added tags and fusions are not shown. Lines headed by an entry give the natural chain unless they say otherwise; changes in a name come on top.
UniProt Q12933: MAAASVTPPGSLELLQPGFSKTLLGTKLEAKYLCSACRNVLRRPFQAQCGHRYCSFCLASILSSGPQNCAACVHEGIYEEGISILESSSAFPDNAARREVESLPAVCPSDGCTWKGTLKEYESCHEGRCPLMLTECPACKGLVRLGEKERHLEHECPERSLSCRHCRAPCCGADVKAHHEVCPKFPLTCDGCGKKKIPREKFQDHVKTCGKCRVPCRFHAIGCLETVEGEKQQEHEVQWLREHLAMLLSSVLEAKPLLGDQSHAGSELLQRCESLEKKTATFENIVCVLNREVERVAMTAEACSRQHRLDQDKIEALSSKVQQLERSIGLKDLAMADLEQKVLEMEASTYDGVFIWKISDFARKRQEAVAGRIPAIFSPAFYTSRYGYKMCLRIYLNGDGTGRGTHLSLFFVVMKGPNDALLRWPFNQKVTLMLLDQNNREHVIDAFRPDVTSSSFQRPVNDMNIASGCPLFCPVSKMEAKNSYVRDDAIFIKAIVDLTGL
UniProt Q12857, whole entry, looked up: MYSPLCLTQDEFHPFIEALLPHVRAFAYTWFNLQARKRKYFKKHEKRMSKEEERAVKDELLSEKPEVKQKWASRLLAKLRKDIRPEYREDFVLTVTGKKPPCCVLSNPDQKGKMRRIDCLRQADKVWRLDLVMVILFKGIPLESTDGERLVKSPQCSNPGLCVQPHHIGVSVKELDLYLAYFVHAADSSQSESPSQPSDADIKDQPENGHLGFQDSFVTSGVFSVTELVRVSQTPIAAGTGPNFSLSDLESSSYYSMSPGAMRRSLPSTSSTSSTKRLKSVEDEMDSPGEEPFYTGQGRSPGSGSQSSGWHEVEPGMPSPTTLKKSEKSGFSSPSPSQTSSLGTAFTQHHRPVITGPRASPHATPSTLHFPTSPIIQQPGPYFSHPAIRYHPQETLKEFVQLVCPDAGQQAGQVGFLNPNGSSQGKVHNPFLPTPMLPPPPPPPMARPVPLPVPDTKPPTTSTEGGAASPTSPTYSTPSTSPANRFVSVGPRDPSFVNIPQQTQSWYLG
UniProt Q08211, whole entry, looked up: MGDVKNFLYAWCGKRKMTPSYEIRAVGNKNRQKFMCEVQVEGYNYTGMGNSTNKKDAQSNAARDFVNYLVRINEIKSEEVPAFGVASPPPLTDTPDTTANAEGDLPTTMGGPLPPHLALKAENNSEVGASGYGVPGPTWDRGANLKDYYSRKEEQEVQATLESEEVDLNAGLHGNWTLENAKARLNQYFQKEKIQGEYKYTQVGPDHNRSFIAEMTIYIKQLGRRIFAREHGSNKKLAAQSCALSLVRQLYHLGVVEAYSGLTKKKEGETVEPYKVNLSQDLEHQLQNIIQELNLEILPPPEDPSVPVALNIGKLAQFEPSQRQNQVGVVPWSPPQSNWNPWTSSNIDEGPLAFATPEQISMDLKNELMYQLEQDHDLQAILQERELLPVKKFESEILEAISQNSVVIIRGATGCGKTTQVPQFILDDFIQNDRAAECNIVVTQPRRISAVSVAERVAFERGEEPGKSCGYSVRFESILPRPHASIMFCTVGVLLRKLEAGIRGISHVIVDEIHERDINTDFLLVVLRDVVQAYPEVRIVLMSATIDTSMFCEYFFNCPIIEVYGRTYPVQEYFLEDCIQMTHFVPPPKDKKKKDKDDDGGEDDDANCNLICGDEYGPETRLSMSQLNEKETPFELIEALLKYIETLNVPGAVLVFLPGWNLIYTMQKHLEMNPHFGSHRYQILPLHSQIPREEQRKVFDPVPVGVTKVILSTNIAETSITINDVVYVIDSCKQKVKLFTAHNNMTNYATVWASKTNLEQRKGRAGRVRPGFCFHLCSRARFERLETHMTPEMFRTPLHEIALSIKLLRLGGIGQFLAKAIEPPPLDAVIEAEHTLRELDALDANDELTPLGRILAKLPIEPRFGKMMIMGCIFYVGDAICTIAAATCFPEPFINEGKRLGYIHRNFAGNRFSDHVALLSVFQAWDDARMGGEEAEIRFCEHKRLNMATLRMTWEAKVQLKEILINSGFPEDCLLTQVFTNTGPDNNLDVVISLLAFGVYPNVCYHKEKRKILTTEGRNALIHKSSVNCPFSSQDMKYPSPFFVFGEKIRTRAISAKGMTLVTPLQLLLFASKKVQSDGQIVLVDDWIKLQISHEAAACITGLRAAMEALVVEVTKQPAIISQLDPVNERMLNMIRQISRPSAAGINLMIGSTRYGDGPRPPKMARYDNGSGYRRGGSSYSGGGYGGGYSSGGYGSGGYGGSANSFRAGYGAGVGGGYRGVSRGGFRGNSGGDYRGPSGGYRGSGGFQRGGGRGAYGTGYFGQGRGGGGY
UniProt Q04637, whole entry, looked up: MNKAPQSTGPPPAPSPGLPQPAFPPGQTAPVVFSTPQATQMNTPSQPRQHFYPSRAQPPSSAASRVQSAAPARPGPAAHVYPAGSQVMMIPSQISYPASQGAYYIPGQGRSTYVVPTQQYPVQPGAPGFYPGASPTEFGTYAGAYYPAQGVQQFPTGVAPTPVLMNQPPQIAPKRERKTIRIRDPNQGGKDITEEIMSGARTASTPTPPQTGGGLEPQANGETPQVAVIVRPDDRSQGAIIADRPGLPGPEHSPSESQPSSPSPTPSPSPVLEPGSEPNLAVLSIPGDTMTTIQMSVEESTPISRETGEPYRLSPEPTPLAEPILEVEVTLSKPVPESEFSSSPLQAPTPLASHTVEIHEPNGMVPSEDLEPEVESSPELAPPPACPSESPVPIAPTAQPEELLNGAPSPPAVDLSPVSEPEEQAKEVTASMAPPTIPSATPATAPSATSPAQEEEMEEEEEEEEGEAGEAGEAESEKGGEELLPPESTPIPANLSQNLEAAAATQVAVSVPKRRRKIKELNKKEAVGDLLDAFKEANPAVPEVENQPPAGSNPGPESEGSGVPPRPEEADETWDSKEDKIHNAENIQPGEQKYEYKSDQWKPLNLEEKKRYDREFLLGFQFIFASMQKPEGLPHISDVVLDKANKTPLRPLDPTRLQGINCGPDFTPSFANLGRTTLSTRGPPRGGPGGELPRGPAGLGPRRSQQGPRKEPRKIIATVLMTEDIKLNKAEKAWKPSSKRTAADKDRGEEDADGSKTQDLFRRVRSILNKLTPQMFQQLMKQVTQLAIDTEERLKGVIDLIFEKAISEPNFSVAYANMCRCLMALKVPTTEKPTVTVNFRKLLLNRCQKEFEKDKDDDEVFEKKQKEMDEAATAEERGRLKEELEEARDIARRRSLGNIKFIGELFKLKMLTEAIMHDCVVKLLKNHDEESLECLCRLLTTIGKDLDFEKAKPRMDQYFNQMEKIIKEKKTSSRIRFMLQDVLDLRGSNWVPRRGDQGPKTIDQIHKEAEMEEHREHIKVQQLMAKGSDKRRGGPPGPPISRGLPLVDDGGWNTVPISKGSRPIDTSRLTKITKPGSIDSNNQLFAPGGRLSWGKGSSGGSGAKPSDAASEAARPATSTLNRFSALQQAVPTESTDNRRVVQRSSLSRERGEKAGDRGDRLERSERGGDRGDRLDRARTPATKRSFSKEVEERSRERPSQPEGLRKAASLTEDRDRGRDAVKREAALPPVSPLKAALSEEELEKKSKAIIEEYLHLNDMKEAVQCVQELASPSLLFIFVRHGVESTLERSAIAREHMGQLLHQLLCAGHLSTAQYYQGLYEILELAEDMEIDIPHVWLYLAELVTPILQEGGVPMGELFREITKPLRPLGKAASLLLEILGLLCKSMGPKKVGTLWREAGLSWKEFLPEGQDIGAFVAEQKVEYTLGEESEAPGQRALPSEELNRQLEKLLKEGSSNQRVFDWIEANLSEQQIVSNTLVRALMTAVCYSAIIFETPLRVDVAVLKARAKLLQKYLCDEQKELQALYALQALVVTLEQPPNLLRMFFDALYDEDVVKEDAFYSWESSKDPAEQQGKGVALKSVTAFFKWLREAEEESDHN
UniProt Q04726: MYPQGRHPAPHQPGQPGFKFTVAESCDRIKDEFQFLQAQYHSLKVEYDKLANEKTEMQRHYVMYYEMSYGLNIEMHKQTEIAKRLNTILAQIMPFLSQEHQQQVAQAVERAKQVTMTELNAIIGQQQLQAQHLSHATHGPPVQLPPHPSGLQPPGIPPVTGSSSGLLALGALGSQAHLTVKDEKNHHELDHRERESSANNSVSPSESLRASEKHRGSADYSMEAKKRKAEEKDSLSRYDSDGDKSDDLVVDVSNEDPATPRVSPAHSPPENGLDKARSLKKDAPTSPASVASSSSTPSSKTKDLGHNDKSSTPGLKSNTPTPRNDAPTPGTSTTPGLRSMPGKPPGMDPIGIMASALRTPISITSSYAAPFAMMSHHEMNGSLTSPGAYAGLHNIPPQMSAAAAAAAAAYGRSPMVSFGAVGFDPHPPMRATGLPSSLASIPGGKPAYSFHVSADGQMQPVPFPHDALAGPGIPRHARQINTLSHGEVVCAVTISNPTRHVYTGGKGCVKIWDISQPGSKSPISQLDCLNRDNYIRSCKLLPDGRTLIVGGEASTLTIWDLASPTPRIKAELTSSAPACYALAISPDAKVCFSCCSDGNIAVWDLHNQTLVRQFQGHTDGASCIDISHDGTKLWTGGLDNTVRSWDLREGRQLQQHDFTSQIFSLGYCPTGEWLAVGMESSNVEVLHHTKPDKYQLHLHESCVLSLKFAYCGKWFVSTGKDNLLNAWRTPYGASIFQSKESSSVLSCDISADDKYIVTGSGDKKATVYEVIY
UniProt Q13144, whole entry, looked up: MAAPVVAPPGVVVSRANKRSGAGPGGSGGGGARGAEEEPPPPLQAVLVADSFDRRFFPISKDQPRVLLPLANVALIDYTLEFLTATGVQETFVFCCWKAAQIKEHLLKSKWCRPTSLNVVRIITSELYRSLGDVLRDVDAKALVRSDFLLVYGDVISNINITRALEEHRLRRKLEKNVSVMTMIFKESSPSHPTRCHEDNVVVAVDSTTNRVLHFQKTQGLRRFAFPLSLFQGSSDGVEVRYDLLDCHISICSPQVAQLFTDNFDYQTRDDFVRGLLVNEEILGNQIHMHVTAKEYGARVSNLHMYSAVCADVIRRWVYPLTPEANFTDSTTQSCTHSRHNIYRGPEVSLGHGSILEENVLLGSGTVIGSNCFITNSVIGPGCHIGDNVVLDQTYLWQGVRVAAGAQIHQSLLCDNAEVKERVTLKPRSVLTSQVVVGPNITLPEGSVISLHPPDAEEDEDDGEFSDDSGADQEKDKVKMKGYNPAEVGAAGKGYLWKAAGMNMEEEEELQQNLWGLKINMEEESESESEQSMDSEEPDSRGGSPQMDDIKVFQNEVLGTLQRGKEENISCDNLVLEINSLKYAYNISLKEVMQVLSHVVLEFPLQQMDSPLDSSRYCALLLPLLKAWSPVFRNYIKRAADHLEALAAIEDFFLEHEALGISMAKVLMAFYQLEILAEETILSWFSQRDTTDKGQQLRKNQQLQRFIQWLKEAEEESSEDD
UniProt Q05655: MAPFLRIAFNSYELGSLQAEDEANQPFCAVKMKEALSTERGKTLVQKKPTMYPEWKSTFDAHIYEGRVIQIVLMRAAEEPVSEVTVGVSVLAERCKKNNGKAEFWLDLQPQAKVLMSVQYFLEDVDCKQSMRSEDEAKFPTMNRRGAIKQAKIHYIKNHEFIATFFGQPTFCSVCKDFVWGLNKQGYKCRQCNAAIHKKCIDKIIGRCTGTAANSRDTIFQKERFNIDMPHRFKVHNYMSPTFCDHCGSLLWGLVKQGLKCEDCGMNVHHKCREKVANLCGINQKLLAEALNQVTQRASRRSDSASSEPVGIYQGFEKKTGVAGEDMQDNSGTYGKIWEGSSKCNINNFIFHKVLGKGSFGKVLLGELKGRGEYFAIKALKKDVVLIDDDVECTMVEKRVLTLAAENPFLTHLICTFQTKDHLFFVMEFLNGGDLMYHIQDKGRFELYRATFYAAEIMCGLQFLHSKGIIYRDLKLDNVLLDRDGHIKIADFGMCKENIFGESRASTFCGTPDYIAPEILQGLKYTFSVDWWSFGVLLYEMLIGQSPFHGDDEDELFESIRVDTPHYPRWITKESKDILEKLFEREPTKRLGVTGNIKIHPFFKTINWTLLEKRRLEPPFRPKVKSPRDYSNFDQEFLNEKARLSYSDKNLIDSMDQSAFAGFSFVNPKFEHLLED
UniProt Q13247: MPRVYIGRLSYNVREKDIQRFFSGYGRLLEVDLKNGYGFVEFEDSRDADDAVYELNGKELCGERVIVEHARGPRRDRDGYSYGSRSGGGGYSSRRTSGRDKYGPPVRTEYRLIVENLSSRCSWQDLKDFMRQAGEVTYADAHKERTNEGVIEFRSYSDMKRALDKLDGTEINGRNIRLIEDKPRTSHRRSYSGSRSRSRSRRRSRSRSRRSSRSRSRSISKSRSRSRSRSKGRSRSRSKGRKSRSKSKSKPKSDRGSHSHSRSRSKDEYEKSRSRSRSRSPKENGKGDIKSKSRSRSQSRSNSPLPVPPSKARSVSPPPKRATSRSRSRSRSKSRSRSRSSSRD

log2 ratio of iodoacetamide-alkyne labeling, inactive:
TRAF2 C124 (UniProt Q12933) 0.266, NFIA C6 (UniProt Q12857) 0.0332, NUP160 C1166 (UniProt Q12769) 0.185, DHX9 C415 (UniProt Q08211) 0.207, NOTCH2 C2085 (UniProt Q04721) -0.0033, UniProt Q13155_C23 -0.117, UniProt Q12948_C550 0.241, UniProt Q02750_C376 0.1, CDC16 C46 (UniProt Q13042) -0.109, TP53BP1 C101 (UniProt Q12888) -0.0218, LGALS3BP C496 (UniProt Q08380) 0.29, EIF4G1 C1265 (UniProt Q04637) 0.0374, AKAP13 C1276 (UniProt Q12802) 0.0929, TRAF2 C287 (UniProt Q12933) 0.092, UniProt Q13155_C168 0.257, ACACA C2075 (UniProt Q13085) 0.0138, UniProt Q12905_C37 -0.124, C1QBP C186 (UniProt Q07021) 0.168, CHAF1A C207 (UniProt Q13111) 0.264, AKAP12 C1399 (UniProt Q02952) 0.331, TCOF1 C38 (UniProt Q13428) -0.117, PSME1 C22 (UniProt Q06323) 0.672, NSUN2 C673 (UniProt Q08J23) 0.193, KIF1A C609 (UniProt Q12756) 0.17, NSUN2 C93 (UniProt Q08J23) 0.231, GRSF1 C173 (UniProt Q12849) -0.0175, AKAP13 C683 (UniProt Q12802) 0.273, STX5 C68 (UniProt Q13190) 0.223, GTF3C1 C1783 (UniProt Q12789) -0.0644, TLE3 C528 (UniProt Q04726) 0.155, GTF3C1 C1977 (UniProt Q12789) 0.162, PTK7 C911 (UniProt Q13308) -0.0317, ROCK1 C1300 (UniProt Q13464) 0.0352, ACACA C1230 (UniProt Q13085) 0.0583, EIF2B5 C196 (UniProt Q13144) 0.047, UniProt Q05655_C127 0.0459, UniProt Q13247_C121 0.166

Reference: the supplement of paper PMC11006884
